The source of these data is publication PMC11102450.

In this assay the target is T1, MYBBP1A (human (endogenous in A549 and HCC827)) (UniProt Q9BQG0).
T1 sequence: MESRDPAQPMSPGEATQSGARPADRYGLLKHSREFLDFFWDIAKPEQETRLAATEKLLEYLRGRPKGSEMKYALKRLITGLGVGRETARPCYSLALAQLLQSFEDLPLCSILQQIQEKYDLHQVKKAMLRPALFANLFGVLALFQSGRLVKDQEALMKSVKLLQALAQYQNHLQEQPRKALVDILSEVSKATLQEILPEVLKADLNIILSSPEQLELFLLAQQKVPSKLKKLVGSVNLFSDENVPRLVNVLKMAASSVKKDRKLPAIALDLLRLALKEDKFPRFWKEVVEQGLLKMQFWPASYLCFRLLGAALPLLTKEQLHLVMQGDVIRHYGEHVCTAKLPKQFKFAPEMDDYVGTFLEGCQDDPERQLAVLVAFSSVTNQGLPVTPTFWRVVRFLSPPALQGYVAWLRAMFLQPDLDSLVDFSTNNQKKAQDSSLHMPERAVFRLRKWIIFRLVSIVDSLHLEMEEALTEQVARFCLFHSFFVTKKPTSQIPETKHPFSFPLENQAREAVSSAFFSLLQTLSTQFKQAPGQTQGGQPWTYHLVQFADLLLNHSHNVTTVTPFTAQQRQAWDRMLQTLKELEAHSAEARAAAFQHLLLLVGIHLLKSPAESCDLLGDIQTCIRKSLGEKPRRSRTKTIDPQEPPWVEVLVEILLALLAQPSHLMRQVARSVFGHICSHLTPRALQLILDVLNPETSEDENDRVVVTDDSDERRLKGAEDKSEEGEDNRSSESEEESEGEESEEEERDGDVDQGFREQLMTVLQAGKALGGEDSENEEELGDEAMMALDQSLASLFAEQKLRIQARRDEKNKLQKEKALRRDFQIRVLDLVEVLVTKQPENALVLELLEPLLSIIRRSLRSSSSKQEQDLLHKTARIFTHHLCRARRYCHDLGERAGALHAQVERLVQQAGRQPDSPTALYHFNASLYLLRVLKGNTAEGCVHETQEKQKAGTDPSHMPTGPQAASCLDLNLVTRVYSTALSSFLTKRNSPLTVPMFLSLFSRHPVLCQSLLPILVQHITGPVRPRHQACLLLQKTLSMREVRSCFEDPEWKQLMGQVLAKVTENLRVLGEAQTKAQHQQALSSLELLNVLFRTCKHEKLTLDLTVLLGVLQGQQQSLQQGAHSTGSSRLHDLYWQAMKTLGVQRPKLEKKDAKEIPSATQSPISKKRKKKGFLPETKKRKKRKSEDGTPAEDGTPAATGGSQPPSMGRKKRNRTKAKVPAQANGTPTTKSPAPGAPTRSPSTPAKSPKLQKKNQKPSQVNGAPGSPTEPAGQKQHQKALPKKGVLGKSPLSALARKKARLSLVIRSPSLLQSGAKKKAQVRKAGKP
Put plainly: co-IP; endogenous proteins in A549 and HCC827 cell lysates (RIPA buffer with protease inhibitor cocktail); incubated with anti-MYBBP1A or anti-p53 antibody or control IgG at 4 °C overnight, Protein A/G PLUS-Agarose beads 4 h, washed 3 times with RIPA buffer, western blot; GAS5-knockdown cells compared with control cells. (Immunoblotting shows a protein as a band on a membrane.)

Results are given in words; binding and its absence hold for the method and conditions named. In cells and extracts the contact can be indirect. Some results given as binding are weak or reduced against the parent protein; the word gives no strength.

Turning to p53 (from UniProt P04637 1-393), the binding result is “binds”.
